Our source for the binding values is article PMC5636811, “High-fidelity DNA replication in Mycobacterium tuberculosis relies on a trinuclear zinc center”.

The chains behind the UniProt entries cited, without tags or fusion partners. Where a name states a change or a piece, a line headed by the entry shows the natural chain unless it says otherwise.
UniProt P9WNU1: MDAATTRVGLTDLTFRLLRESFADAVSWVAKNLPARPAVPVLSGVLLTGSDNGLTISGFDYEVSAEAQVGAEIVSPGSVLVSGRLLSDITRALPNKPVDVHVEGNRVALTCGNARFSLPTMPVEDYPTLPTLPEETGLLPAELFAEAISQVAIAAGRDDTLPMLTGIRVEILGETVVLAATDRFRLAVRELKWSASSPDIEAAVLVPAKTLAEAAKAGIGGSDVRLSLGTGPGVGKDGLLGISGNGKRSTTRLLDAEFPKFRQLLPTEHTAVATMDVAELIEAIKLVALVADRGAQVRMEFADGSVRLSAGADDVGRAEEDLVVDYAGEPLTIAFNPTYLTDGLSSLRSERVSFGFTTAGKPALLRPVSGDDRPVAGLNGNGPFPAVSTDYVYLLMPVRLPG
UniProt P9WNT7: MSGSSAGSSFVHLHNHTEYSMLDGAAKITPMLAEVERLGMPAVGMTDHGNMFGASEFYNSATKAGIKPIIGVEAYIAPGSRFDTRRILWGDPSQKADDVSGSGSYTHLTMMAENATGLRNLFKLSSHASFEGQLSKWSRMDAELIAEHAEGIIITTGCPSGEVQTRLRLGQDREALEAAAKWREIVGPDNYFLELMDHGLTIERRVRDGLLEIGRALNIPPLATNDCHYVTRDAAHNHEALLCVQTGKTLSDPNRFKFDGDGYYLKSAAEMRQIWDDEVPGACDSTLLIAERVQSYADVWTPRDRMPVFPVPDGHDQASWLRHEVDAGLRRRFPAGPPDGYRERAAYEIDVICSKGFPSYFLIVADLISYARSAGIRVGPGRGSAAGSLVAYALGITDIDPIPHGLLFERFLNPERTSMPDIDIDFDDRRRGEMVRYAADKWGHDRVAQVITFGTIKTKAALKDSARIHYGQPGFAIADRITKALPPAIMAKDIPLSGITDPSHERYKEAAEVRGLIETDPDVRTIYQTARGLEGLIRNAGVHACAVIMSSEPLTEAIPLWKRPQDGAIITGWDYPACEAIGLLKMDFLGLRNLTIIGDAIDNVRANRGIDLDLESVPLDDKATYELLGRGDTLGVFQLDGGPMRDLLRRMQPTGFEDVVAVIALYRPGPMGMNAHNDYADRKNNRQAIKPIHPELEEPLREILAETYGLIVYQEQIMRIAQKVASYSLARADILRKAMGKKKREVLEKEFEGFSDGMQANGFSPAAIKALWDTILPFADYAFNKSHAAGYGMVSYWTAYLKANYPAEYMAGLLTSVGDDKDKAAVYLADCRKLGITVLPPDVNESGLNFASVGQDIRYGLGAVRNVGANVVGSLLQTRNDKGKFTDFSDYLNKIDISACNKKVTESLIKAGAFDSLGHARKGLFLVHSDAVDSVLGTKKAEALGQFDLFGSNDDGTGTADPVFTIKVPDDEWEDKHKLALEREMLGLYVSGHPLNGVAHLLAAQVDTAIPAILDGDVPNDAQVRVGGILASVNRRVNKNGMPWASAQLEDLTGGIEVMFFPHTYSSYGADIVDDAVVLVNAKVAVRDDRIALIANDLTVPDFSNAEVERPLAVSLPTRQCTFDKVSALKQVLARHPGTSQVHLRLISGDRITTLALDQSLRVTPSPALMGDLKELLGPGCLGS

Results are given in words; binding and its absence hold for the method and conditions named. A result given as binding can be weak or reduced; the word gives no strength.

This assay addresses Mycobacterium tuberculosis β-clamp (Mycobacterium tuberculosis) (UniProt P9WNU1). The assay can be described thus: cryo-EM structure; both purified.

“Mycobacterium tuberculosis DnaE1 polymerase (from UniProt P9WNT7) (enzyme)”: the binding result was “binds”.
